Assay results: patent publication US20260209175A1, “PHARMACEUTICALLY ACCEPTABLE 5-METHOXY-N,N-DIMETHYLTRYPTAMINE SALTS AND COMPOSITIONS THEREOF” (priority 2022, published 2026)
Where a name gives a salt, the structure may show the parent alone. Some of these results come from one statement about several compounds together.

Experiment: Dynamic Vapor Sorption (DVS) analysis of salts, with XRPD of the post-DVS sample
Format: physicochemical
Settings: salt screen / scale-up batches, DVS at 25° C
Protocol: XRPD diffractograms were acquired using Bruker D2 Phaser diffractometer equipped with LYNXEYE detector. Samples were prepared using a zero-background sample holder. The samples were scanned from 5 to 32° (2θ) using a step size of 0.02° and a time per step of 0.13 second whilst spinning the sample. Diffractograms were plotted using the EVA program from Bruker.
DVS analyses were performed on TA Instrument DVS Q5000. Samples were added to a pre-tared metallised quartz crucible and run at 25° C. from 40% RH to 90% RH, down to zero and back to 40%. This cycle was repeated in increments of 10% RH.

Compound	hygroscopicity classification (listed as tosylate salt)	hygroscopicity classification
COc1ccc2[nH]cc(CCN(C)C)c2c1 [Tosylate salt, 5-MeO-DMT tosylate]	slightly hygroscopic (Pharmaceuticals that pick up between 0.2% and 2.0% moisture at 80% RH are considered slightly hygroscopic)	–
COc1ccc2[nH]cc(CCN(C)C)c2c1.O=C(O)c1ccccc1 [benzoate salt, 5-MeO-DMT benzoate]	–	moderately hygroscopic (Pharmaceuticals that pick up between 2.0% and 15.0% moisture at 80% RH are considered moderately hygroscopic)
